These are yes or no findings as the source states them, for the method shown. In cells and extracts the contact can be indirect. Some entries that bind do so weakly or less than the wild type.
Target: nod-like receptor protein 3 (NLRP3) (human (endogenous in HK2)) (UniProt Q96P20)
Assay: co-IP; HK2 cells with or without LPS stimulation, homogenized in lysis buffer of the IP/CoIP kit on ice; lysates incubated with selected antibodies at 4 °C overnight, protein A/G agarose beads, washed three times, Western blot

Chains of the proteins cited; added tags and fusions are not shown.
UniProt Q96P20: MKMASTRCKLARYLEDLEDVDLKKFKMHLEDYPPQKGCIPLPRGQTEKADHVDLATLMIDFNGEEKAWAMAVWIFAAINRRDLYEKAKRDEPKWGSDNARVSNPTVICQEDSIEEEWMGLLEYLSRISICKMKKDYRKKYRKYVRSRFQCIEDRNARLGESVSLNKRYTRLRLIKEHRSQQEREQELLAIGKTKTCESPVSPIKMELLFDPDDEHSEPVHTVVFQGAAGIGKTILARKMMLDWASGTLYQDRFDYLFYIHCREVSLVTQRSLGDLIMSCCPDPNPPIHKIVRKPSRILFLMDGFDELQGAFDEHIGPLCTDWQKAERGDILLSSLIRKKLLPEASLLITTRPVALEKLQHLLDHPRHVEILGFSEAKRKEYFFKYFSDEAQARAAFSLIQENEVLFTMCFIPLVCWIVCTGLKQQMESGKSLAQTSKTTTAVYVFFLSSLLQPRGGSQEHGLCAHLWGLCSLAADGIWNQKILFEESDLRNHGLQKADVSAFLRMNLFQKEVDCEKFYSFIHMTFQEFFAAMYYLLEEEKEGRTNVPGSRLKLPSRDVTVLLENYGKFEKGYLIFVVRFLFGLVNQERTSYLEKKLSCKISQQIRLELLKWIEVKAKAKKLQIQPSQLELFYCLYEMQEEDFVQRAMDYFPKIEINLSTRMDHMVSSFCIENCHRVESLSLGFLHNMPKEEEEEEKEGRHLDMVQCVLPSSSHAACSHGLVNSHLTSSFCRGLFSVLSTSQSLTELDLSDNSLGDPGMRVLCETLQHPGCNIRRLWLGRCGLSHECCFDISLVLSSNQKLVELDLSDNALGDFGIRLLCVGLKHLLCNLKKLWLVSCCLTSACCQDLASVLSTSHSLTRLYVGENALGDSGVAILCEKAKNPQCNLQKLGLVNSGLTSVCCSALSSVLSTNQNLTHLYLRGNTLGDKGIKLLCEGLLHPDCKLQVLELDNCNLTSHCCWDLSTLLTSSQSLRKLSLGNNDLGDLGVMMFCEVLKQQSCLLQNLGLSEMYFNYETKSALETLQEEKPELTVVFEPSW

B1: macrophage migration inhibitory factor (MIF) (protein, UniProt P14174 1-115)
chain: MPMFIVNTNVPRASVPDGFLSELTQQLAQATGKPPQYIAVHVVPDQLMAFGGSSEPCALCSLHSIGKIGGAQNRSYSKLLCGLLAERLRISPDRVYINYYDMNAANVGWNNSTFA
binding: binds

Source: paper PMC9830505
